From patent publication US20010029293A1
These are yes or no findings as the source states them, for the method shown. Some binding calls cover weakened binding; strength is not graded here.

Protein sequences, listed by entry. Tags and fused reporters are not part of them. Lines headed by an entry give the natural chain unless they say otherwise; changes in a name come on top.
UniProt P13612: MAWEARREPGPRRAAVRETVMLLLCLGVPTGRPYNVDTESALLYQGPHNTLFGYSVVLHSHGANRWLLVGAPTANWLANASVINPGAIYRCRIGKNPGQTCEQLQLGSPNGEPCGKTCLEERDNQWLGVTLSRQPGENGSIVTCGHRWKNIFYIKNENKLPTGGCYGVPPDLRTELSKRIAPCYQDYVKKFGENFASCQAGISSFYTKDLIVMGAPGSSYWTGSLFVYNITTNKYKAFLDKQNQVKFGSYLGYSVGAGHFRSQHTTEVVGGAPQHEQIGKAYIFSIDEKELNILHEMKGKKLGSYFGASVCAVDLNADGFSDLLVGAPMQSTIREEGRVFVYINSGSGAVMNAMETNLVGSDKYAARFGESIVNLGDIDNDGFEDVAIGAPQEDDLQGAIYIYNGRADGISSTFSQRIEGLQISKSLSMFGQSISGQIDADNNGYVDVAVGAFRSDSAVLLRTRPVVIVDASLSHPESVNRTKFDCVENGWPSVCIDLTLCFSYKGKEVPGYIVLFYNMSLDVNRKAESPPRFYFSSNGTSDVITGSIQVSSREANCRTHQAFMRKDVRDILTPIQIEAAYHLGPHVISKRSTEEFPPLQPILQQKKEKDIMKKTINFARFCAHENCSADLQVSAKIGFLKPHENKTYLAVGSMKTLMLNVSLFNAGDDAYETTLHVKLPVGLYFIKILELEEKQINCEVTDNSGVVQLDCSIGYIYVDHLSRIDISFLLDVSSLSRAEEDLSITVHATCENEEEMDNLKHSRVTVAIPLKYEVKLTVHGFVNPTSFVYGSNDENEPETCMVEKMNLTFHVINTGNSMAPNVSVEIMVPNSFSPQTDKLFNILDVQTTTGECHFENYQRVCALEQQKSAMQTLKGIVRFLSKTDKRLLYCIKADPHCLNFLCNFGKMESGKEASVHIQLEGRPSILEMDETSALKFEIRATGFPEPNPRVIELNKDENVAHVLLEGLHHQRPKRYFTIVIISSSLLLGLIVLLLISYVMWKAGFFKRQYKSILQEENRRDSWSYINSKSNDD

Target: T1, domain deletion ICAM-R/IgG chimera with ICAM-R domains 3, 4 and 5 (human) (UniProt P32942)
T1 sequence: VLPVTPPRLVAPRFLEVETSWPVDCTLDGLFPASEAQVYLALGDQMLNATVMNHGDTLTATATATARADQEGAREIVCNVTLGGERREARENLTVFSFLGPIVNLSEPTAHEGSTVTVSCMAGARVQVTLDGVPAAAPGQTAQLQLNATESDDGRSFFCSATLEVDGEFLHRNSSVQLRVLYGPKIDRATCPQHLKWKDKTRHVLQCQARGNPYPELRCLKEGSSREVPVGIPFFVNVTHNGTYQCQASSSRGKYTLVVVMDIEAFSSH
Assay: cell adhesion, domain deletion ICAM-R/IgG

binding: binds
Substance: VLA-4 (α4/β1) on cells (from UniProt P13612 34-1032; P05556 21-798) (receptor)
